# Measurements reported in the supplement of paper PMC12819154, “High-throughput peptide-centric local stability assay extends protein–ligand identification to membrane proteins, tissues and bacteria” (Nature Structural & Molecular Biology, 2025).
# Amino acid sequences for entries named in this document (tags omitted). A change or cut given only in a name is not applied to a line headed by its entry.
# UniProt Q9UK59: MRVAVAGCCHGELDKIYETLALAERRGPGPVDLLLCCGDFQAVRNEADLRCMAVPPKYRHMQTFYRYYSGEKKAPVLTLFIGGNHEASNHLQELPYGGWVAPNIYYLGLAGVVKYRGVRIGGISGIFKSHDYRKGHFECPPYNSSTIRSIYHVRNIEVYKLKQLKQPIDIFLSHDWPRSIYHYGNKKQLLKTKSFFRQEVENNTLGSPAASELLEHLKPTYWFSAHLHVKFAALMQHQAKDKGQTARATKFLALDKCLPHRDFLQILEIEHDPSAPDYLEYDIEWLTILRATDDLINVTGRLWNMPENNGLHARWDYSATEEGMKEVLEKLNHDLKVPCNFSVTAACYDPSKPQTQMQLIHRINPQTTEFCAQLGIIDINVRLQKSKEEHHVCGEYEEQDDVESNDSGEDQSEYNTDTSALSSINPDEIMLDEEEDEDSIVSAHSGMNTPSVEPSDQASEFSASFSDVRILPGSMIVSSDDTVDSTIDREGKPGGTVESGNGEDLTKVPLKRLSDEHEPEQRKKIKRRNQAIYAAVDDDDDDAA
# UniProt Q9UJX2, whole entry: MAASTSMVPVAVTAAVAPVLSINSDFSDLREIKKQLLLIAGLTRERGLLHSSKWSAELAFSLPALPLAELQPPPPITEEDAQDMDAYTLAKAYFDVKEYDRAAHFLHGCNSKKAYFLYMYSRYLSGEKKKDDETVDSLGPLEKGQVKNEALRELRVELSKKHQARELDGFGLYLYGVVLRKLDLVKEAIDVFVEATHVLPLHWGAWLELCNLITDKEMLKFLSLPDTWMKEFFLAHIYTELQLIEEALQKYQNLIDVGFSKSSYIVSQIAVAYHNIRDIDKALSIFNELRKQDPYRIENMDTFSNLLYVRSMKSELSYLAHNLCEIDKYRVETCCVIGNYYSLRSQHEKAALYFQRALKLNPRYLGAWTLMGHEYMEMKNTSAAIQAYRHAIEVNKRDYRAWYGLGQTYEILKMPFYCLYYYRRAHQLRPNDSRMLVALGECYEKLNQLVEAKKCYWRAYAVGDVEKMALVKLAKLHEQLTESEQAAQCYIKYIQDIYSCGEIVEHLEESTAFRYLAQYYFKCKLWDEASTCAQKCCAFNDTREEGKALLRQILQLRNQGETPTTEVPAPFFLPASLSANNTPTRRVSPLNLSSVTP
# UniProt Q9UHV9, whole entry: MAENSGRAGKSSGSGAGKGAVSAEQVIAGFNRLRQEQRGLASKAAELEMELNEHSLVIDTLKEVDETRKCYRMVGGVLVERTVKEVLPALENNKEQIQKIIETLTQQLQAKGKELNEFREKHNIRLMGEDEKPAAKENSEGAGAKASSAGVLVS
# UniProt Q9UKB3: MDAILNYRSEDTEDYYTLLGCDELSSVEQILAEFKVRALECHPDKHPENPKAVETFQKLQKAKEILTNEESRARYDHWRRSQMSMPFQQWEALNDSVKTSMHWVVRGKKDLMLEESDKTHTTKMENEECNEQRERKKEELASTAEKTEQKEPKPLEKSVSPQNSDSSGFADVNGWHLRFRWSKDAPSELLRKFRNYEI
# UniProt Q9UNI6, whole entry: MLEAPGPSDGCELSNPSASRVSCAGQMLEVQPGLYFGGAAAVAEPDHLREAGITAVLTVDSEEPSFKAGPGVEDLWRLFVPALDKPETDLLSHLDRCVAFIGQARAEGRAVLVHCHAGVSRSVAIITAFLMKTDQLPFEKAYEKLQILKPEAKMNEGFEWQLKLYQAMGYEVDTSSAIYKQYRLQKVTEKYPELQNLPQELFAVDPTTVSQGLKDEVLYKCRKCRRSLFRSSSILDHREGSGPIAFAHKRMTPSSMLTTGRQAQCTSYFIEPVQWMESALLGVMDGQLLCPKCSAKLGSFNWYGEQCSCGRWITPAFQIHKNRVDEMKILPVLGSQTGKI
# UniProt Q9UMX0, whole entry: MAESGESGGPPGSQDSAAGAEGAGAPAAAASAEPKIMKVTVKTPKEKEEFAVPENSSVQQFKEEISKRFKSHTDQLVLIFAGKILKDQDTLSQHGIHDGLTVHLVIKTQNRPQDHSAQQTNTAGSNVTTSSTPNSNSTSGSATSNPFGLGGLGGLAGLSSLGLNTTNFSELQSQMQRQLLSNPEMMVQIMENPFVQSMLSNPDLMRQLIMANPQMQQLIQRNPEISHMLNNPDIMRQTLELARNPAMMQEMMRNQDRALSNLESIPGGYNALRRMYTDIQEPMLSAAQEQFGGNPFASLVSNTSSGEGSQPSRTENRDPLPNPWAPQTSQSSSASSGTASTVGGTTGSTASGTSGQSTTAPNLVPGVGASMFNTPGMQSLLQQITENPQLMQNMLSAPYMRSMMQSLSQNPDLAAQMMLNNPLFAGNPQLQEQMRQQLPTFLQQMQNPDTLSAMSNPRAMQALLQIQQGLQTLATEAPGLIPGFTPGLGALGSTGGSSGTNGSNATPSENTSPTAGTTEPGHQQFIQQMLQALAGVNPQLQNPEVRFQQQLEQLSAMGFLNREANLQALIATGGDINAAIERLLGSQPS
# UniProt Q9UKV0: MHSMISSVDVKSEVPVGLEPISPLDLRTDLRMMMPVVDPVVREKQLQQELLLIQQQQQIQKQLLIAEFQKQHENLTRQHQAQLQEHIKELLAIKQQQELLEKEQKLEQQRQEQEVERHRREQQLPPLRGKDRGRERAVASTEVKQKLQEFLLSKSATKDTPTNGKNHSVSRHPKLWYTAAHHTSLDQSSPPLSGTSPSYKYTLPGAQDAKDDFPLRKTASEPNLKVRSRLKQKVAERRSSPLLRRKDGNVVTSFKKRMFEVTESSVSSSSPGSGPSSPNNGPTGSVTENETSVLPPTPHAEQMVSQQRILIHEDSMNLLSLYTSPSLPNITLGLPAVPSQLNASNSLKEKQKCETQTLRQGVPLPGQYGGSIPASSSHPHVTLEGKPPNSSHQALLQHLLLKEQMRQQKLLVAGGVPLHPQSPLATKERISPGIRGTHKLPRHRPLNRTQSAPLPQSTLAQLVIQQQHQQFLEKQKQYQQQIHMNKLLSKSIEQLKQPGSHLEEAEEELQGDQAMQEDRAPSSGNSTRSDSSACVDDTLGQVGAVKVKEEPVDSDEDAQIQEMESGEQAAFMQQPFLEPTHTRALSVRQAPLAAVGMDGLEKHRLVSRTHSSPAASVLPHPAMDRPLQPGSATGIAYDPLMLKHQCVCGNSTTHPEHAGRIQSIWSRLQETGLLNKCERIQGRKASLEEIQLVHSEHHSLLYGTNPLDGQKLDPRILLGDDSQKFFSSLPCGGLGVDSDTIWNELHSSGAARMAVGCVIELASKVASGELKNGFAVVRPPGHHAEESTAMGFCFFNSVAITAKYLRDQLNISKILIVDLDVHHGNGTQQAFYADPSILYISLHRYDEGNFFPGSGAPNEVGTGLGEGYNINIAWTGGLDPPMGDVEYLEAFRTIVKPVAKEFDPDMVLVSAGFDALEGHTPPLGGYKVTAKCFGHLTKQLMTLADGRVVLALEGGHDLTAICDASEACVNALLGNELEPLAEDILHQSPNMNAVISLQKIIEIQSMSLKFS
# UniProt Q9Y217: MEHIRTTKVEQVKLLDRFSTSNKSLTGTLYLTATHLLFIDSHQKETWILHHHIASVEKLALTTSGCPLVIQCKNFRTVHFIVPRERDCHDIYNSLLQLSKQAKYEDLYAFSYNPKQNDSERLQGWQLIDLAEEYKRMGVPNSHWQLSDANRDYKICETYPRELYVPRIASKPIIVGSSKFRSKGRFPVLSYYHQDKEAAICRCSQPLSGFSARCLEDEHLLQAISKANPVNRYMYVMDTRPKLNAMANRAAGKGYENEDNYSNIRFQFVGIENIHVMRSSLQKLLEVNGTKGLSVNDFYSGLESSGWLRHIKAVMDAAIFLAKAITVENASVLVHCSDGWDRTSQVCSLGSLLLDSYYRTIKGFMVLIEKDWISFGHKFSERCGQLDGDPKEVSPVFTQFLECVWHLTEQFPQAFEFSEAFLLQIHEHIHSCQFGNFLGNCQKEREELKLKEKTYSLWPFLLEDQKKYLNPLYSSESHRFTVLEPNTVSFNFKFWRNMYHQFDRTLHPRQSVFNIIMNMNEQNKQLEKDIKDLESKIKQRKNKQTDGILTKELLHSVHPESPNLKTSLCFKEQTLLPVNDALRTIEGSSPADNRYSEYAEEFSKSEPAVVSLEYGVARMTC
# UniProt Q9UIL1: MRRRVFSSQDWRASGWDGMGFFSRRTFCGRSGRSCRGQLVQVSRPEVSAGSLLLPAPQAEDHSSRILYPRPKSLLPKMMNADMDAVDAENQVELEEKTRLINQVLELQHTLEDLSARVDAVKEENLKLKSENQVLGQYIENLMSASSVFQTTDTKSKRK
# UniProt Q9UKY7: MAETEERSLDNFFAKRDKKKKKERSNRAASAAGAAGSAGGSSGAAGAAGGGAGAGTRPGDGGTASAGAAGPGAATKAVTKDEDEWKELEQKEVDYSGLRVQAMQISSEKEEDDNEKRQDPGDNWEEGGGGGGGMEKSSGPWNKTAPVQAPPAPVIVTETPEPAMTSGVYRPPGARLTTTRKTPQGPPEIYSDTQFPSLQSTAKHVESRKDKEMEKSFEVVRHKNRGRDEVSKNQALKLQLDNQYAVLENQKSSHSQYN
# UniProt Q9UK96: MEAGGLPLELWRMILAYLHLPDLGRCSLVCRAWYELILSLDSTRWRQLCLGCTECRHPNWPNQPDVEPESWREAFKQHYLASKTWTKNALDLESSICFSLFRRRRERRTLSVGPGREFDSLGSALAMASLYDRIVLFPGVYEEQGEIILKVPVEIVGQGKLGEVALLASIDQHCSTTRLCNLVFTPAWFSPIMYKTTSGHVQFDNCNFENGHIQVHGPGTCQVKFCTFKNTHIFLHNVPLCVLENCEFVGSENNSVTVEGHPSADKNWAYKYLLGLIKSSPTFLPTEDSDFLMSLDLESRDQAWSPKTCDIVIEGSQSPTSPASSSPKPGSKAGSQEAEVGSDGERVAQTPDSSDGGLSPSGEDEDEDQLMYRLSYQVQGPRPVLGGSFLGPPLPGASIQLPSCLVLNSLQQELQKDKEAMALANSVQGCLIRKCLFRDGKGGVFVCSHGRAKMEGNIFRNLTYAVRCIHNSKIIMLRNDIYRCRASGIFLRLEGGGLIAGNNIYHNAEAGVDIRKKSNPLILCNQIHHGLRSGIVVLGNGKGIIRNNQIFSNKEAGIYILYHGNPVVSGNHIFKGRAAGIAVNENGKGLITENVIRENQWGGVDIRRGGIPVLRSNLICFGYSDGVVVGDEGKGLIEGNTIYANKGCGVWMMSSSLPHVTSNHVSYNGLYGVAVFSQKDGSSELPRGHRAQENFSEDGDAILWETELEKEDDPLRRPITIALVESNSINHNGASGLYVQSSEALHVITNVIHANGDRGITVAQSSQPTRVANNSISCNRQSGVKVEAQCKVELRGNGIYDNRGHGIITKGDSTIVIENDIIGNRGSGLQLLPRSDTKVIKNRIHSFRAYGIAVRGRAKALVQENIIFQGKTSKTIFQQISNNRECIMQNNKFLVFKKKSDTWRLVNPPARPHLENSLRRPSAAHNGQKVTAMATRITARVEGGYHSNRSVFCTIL
# UniProt Q9ULW3: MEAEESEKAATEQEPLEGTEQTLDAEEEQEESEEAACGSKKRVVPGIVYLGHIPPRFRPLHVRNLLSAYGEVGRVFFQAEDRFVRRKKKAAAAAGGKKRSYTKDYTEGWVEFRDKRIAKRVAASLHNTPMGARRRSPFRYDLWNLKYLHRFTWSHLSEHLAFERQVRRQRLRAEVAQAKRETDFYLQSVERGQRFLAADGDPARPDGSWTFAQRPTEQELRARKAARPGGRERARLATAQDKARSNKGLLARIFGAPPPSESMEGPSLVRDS
# UniProt Q9UKY1: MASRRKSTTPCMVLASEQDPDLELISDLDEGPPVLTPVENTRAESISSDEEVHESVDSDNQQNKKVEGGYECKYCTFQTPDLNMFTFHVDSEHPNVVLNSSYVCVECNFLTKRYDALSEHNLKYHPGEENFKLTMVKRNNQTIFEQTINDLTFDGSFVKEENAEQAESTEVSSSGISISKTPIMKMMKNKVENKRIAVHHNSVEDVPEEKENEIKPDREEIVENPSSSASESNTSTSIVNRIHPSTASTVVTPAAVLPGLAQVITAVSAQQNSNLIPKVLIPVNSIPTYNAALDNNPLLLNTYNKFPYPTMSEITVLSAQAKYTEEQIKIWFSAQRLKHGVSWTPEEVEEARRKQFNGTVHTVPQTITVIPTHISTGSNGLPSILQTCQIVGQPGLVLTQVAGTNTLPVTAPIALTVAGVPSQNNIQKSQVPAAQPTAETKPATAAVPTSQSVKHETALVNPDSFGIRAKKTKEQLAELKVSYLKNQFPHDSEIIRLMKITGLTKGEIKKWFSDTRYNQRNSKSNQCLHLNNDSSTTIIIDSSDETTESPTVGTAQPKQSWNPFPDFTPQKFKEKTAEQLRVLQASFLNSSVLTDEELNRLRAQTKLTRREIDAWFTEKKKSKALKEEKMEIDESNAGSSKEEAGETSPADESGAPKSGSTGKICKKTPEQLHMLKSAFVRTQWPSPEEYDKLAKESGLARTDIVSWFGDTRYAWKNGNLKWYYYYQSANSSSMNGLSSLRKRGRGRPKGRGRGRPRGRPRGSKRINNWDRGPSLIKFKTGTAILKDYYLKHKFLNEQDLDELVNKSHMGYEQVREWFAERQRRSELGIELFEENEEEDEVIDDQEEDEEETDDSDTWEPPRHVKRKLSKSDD
# This is one part of the list. Most values lie at the level of the controls, where differences are scatter.
# Compound: Cc1nc(Nc2ncc(C(=O)Nc3c(C)cccc3Cl)s2)cc(N2CCN(CCO)CC2)n1 [dasatinib]
# Assay: log2 fold change of tryptic peptide abundance, ligand vs vehicle (limited proteolysis) (log2 ratio); higher = more trypsin-susceptible (destabilized)
# Conditions: ligand concentration: 5 uM; sample: K562 cleared lysate
row,Target,log2 fold change
1,"TBC1D2B (peptide sequence: DQLELDR, peptide start residue: 482) (UniProt Q9UPU7)",0.36
2,"DBR1 (peptide sequence: LWNMPENNGLHAR, peptide start residue: 302) (UniProt Q9UK59)",-0.334
3,"CDC23 (peptide sequence: KKDDETVDSLGPLEK, peptide start residue: 129) (UniProt Q9UJX2)",-0.399
4,"PFDN2 (peptide sequence: GKELNEFREK, peptide start residue: 112) (UniProt Q9UHV9)",-0.342
5,"DNAJC12 (peptide sequence: EILTNEESR, peptide start residue: 64) (UniProt Q9UKB3)",-0.31
6,"UniProt Q9ULH7 (peptide sequence: GLPVSGTKPDLIER, peptide start residue: 405)",-0.182
7,"UniProt Q9UIE0 (peptide sequence: ASSILNHK, peptide start residue: 580)",0.399
8,"DUSP12 (peptide sequence: ILPVLGSQTGKI, peptide start residue: 329) (UniProt Q9UNI6)",-0.356
9,"UBQLN1 (peptide sequence: EKEEFAVPENSSVQQFK, peptide start residue: 46) (UniProt Q9UMX0)",-0.0774
10,"UniProt Q9UKV0 (peptide sequence: IQSIWSR, peptide start residue: 548)",-0.115
11,"GPATCH8 (peptide sequence: LPPSLGNKPVLPLIGKLPATR, peptide start residue: 1135) (UniProt Q9UKJ3)",-1.28
12,"GNE (peptide sequence: VAIVSMKGEIVKK, peptide start residue: 421) (UniProt Q9Y223)",0.764
13,"MTMR6 (peptide sequence: YMYVMDTRPK, peptide start residue: 233) (UniProt Q9Y217)",0.498
14,"UniProt Q9UQ16 (peptide sequence: SSVLENFVGR, peptide start residue: 45)",-0.112
15,"UniProt Q9UJM8 (peptide sequence: ALALGAK, peptide start residue: 289)",-0.0175
16,"SHOC2 (peptide sequence: SIHILPSSIK, peptide start residue: 111) (UniProt Q9UQ13)",-0.403
17,"PYCARD (peptide sequence: VLTDEQYQAVR, peptide start residue: 140) (UniProt Q9ULZ3)",-0.144
18,"RPL26L1 (peptide sequence: YKEELIEK, peptide start residue: 135) (UniProt Q9UNX3)",0.0293
19,"UniProt Q9UHJ3 (peptide sequence: STDCAPLAR, peptide start residue: 807)",0.255
20,"VPS51 (peptide sequence: LGHHLQGLR, peptide start residue: 407) (UniProt Q9UID3)",-1.1
21,"NSFL1C (peptide sequence: SPGETSKPR, peptide start residue: 140) (UniProt Q9UNZ2)",0.225
22,"AP4E1 (peptide sequence: KDQSQVLTQSKEEK, peptide start residue: 748) (UniProt Q9UPM8)",0.329
23,"SCOC (peptide sequence: VDAVKEENLK, peptide start residue: 118) (UniProt Q9UIL1)",-0.0189
24,"SLC12A6 (peptide sequence: VHMTWTK, peptide start residue: 1045) (UniProt Q9UHW9)",-0.36
25,"CDV3 (peptide sequence: DEDEWKELEQK, peptide start residue: 81) (UniProt Q9UKY7)",0.289
26,"UniProt Q9UK96 (peptide sequence: VANNSISCNR, peptide start residue: 771)",0.903
27,"ABT1 (peptide sequence: RVAASLHNTPMGAR, peptide start residue: 120) (UniProt Q9ULW3)",0.512
28,"ZHX1 (peptide sequence: YDALSEHNLK, peptide start residue: 114) (UniProt Q9UKY1)",-0.222
29,"ACAD8 (peptide sequence: GTPGLSFGKK, peptide start residue: 223) (UniProt Q9UKU7)",0.15

# Reprinted at random: two entries already listed.
row,Target,log2 fold change
18,"RPL26L1 (peptide sequence: YKEELIEK, peptide start residue: 135) (UniProt Q9UNX3)",0.0293
10,"UniProt Q9UKV0 (peptide sequence: IQSIWSR, peptide start residue: 548)",-0.115
